{
  "source": "patent US20230151073A1",
  "about": "“FIBRILLATION RESISTANT CALCITONIN PEPTIDES AND USES THEREOF” (Purdue Research Foundation, priority 2020, published 2023)",
  "assay": "HDX-MS for monomeric hCT (no fibrillation, control)",
  "assay_type": "physicochemical",
  "conditions": "less than 2 min of D2O exposure",
  "data": [
    {"substance": "human calcitonin [hCT]", "values": [
      {"measurement": "maximum percent deuterium uptake, fragment 1-8", "result": 62, "unit": "%"},
      {"measurement": "maximum percent deuterium uptake, fragment 1-11", "result": 66, "unit": "%"},
      {"measurement": "maximum percent deuterium uptake, fragment 12-19", "result": 59, "unit": "%"},
      {"measurement": "maximum percent deuterium uptake, fragment 16-28", "result": 60, "unit": "%"},
      {"measurement": "maximum percent deuterium uptake, fragment 20-32", "result": 63, "unit": "%"},
      {"measurement": "maximum percent deuterium uptake, fragment 26-32", "result": 60, "unit": "%"}
    ]}
  ]
}
